Patent publication US4897344A, “Method of hardening gelatin” (Fuji Photo Film Co., Ltd., priority 1987, dated 1990)

Columns and labels:
acid treated gelatin = assay: Hardening of gelatin microcapsule walls, capsule quality (Example 5); settings: 100 parts of 10% aqueous solution of Compound 9
Description: Next 30 parts of diisopropylbiphenyl in which 2% of crystal violet lactone (CVL) had been dissolved was added to the colloidal solution and stirred vigorously to form an oil in water emulsion, and the stirring was stopped when the size of the oil droplets was 6 to 10μ. Next 250 parts of warm water at 45° C. was added to the emulsion. The pH was then adjusted to 4.5 by titration with 50% acetic acid while stirring the mixture. After stirring at this temperature for 15 minutes, the container was cooled from the outside, and the colloid walls which had accumulated were gelled and solidified. The stirring was continued and, when the liquid temperature reached 15° C., 100 parts of a 10% aqueous solution of Compound 9 of this invention was added as a hardening agent. When the liquid temperature reached 10° C. the dropwise addition of a 10% aqueous solution of caustic soda was started and the pH was finally raised to 10.
To parts of a 15% aqueous solution of poly(vinyl alcohol) and 0.5 parts of starch were added to 10 parts of the capsule liquid obtained in this way to form a coating liquid, and this was coated with a coating rod onto a top paper in such a way as to provide a solid fraction coated weight of 20 grams per square meter. […]

[1] = Image evaluation of plate-making film after storage (Example 4); settings: room temperature; Compound 4 3 wt % with respect to gelatin
Description: A silver nitrate solution and a halide solution consisting of sodium chloride and potassium bromide were added using the double jet method to an aqueous gelatin solution which was being maintained at 45° C., and a monodisperse, cubic silver chlorobromide emulsion (70 mol % Cl) of which the average grain size was 0.20μ was obtained. At this time 7×10^-8 mol per mol of silver of triammonium hexachlororhodium and 3×10^-7 mol per mol of silver of tripotassium hexachloroiridium were added. The emulsion was washed with water and de-salted in the usual manner and then chemically sensitized by the addition of sodium thiosulfate and chloroauric acid and an emulsion was obtained. An emulsion layer coating solution was then prepared by adding (D-1) as a sensitizing dye, 4-hydroxy-6-methyl-1,3,3a,7-tetrazaindene and 1-phenyl-5-mercaptotetrazole as stabilizers and a poly(ethylacrylate) dispersion, 100 mg per mol of silver of Compound (4), Compound (1), and moreover 3 wt % with respect to the gelatin of Compound 4 of this invention as a film hardening agent to this emulsion.
A protective layer coating solution was obtained by adding poly(methyl methacrylate) as a matting agent and Compounds (2) and (3) as coating promotors to a gelatin solution. [drawing 12]
An emulsion layer and a protective layer were coated in the above order from the support on a polyethyleneterephthalate support. […]

| SMILES | coloration of capsules (acid treated gelatin) | heat resistance of capsules (acid treated gelatin) | image quality / photographic performance, stored 3 days [1] | image quality / photographic performance, stored 7 days [1] |
| --- | --- | --- | --- | --- |
| C=CS(=O)(=O)C(COc1ccc(S(=O)(=O)O)c2ccccc12)S(=O)(=O)C=C [Compound 9] | no coloration | resistant to heat | – | – |
| C=CS(=O)(=O)CC(=O)NC(NC(=O)CS(=O)(=O)C=C)c1ccc(OCCCS(=O)(=O)O)cc1 [Comparative Compound (II)] | – | – | only the sample which had been stored for 7 days had a good photographic performance | good photographic performance |
